These results are taken from publication doi:10.1101/133777.

Chains of the proteins cited; added tags and fusions are not shown.
UniProt P63208: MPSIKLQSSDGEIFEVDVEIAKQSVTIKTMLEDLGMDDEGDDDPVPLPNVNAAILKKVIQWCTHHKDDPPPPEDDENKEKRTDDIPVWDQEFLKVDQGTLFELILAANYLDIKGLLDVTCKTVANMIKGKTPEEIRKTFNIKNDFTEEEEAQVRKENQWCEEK

This assay concerns the target T1, BioEase-FBXL5 (UniProt Q9UKA1).
T1 sequence (chain, biotin (biotinylated FBXL5, BioEase tag)): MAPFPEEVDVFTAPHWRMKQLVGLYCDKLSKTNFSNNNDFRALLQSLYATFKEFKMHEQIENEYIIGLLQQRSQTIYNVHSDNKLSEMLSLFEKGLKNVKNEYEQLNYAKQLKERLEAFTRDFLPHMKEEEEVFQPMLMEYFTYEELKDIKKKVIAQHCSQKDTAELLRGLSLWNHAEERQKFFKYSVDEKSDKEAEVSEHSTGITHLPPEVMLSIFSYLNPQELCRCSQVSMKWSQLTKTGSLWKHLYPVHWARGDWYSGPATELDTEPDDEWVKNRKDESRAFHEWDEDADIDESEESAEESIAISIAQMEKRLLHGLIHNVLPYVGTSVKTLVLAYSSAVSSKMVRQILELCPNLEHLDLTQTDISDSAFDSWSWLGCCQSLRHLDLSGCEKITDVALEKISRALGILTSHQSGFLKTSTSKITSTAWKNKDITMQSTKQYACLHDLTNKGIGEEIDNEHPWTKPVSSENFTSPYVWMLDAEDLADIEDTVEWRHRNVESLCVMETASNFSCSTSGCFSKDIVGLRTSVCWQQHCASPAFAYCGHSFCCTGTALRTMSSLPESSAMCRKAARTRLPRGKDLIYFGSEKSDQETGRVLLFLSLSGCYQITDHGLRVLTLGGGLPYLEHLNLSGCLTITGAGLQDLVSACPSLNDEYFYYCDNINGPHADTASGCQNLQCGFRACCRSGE
Nature of the assay: pull-down.

These are yes or no findings as the source states them, for the method shown. Some results given as binding are weak or reduced against the parent protein; the word gives no strength.

As for “3HA-3FLAG-tagged SKP1 (from UniProt P63208 1-163)”, the binding entry is “binds”.
